Among the data in publication PMC10950228 are binding values, retold here.

Experiment in all cases: pull-down; native streptavidin pulldown of SFB-RFWD3 (WT, C315A or C315A/I639K) from transfected HEK293T lysate (NETN buffer, 100 mM NaCl, 0.5% NP-40, benzonase), cells treated or not with 2 mM HU for 3 h; immunoblot
On the technique in general: Immunoblotting shows a protein as a band on a membrane.

For one test, the target named is T1, SFB-RFWD3 C315A (human) (UniProt Q6PCD5).
T1 sequence: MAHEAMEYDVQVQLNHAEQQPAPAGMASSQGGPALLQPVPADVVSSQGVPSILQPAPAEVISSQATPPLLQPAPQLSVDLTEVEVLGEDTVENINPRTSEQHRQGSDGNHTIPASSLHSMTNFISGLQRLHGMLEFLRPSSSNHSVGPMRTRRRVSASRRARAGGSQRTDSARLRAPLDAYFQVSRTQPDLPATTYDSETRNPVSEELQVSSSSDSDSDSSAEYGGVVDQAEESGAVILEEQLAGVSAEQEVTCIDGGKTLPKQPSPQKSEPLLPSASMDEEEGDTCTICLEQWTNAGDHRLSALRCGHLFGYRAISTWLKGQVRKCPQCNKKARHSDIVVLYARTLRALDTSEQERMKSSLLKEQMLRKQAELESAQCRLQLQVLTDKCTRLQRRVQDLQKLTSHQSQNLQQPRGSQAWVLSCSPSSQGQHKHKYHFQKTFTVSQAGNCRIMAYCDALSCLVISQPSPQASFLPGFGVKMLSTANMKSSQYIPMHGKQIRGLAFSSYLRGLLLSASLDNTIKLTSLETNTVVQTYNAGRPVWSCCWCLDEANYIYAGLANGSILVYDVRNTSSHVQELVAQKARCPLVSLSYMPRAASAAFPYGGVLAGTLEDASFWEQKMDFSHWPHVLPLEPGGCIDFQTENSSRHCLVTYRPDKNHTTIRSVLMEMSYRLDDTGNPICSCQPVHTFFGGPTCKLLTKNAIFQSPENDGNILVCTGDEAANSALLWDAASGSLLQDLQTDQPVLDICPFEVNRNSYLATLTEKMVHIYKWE

Test [1] deals with T2, SFB-RFWD3 C315A/I639K (human) (UniProt Q6PCD5).
T2 sequence: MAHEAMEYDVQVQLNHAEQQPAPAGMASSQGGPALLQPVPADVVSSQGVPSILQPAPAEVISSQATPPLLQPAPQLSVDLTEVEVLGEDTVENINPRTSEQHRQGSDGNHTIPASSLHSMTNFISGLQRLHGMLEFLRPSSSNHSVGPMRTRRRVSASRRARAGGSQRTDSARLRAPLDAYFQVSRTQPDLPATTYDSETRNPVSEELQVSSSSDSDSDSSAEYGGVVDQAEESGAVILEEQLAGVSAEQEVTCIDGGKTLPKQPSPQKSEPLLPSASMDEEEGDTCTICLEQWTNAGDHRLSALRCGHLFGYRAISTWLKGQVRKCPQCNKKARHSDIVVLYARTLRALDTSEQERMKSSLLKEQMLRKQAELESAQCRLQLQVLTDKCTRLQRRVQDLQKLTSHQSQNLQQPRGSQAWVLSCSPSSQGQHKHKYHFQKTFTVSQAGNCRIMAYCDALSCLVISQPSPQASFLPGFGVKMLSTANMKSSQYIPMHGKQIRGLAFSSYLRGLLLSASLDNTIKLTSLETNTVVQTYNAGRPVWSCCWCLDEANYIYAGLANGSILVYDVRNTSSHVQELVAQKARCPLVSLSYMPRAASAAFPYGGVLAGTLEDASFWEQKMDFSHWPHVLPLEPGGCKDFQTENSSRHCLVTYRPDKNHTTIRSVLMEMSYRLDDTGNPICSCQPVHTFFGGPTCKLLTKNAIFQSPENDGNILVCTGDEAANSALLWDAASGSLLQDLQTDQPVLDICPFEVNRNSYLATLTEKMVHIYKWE

In the next test the target is T3, SFB-RFWD3 WT (human) (UniProt Q6PCD5).
T3 sequence: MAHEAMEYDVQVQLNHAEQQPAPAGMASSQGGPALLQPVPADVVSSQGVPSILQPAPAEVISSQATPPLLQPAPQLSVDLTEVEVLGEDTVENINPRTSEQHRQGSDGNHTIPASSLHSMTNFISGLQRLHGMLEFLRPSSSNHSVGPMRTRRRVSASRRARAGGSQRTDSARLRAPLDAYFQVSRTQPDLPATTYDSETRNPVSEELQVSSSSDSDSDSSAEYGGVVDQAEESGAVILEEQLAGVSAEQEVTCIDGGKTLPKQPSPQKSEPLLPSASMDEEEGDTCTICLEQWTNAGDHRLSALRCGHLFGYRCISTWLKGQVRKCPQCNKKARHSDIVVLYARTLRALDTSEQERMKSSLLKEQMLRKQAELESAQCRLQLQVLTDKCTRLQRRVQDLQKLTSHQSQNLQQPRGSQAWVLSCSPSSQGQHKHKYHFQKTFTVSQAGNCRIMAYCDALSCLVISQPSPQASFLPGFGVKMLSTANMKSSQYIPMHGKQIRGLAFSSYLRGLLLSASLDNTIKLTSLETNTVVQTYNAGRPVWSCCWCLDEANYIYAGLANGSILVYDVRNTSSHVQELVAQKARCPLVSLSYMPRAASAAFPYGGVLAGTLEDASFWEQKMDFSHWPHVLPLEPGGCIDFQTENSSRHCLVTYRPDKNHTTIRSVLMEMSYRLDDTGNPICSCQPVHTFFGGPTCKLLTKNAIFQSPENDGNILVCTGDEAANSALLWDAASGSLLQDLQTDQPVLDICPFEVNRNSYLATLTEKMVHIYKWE

These are yes or no findings as the source states them, for the method shown. Binding seen in cells or lysates may run through a third protein. Some binding calls cover weakened binding; strength is not graded here.

B1: endogenous SMARCAL1 (protein, UniProt Q9NZC9 1-954)
chain: MSLPLTEEQRKKIEENRQKALARRAEKLLAEQHQRTSSGTSIAGNPFQAKQGPSQNFPRESCKPVSHGVIFKQQNLSSSSNADQRPHDSHSFQAKGIWKKPEEMPTACPGHSPRSQMALTGISPPLAQSPPEVPKQQLLSYELGQGHAQASPEIRFTPFANPTHKPLAKPKSSQETPAHSSGQPPRDAKLEAKTAKASPSGQNISYIHSSSESVTPRTEGRLQQKSGSSVQKGVNSQKGKCVRNGDRFQVLIGYNAELIAVFKTLPSKNYDPDTKTWNFSMNDYSALMKAAQSLPTVNLQPLEWAYGSSESPSTSSEGQAGLPSAPSLSFVKGRCMLISRAYFEADISYSQDLIALFKQMDSRRYDVKTRKWSFLLEEHSKLIAKVRCLPQVQLDPLPTTLTLAFASQLKKTSLSLTPDVPEADLSEVDPKLVSNLMPFQRAGVNFAIAKGGRLLLADDMGLGKTIQAICIAAFYRKEWPLLVVVPSSVRFTWEQAFLRWLPSLSPDCINVVVTGKDRLTAGLINIVSFDLLSKLEKQLKTPFKVVIIDESHFLKNSRTARCRAAMPVLKVAKRVILLSGTPAMSRPAELYTQIIAVKPTFFPQFHAFGLRYCDAKRMPWGWDYSGSSNLGELKLLLEEAVMLRRLKSDVLSQLPAKQRKIVVIAPGRINARTRAALDAAAKEMTTKDKTKQQQKDALILFFNRTAEAKIPSVIEYILDLLESGREKFLVFAHHKVVLDAITQELERKHVQHIRIDGSTSSAEREDLCQQFQLSERHAVAVLSITAANMGLTFSSADLVVFAELFWNPGVLIQAEDRVHRIGQTSSVGIHYLVAKGTADDYLWPLIQEKIKVLAEAGLSETNFSEMTESTDYLYKDPKQQKIYDLFQKSFEKEGSDMELLEAAESFDPGSASGTSGSSSQNMGDTLDESSLTASPQKKRRFEFFDNWDSFTSPL
For B1, the figures for the binding entry (in the test with SFB-RFWD3 C315A (human); in test [1]; with SFB-RFWD3 WT (human)) were “binds”, “no binding” and “binds”, respectively.
